Some of these results come from one statement about several compounds together. At least one compound was matched to its structure with a doubt left.
Biological target: human NaV 1.8 (Homo sapiens, UniProt Q9Y5Y9)
Assay: E-VIPR Assay Detecting and Measuring NaV Inhibition Properties
Type: cell-based
Conditions: HEK cells expressing a truncated form of human NaV 1.8 with full channel activity; electrical stimulation, membrane-potential FRET dyes; 30 minutes compound incubation; read-out: measured IC50 value in the E-VIPR Assay
Description: E-VIPR Assay Detecting and Measuring NaV Inhibition Properties
Sodium ion channels are voltage-dependent proteins that can be activated by inducing membrane voltage changes by applying electric fields. The electrical stimulation instrument and methods of use, referred to as E-VIPR, are described in International Publication No. WO 2002/008748 A3 and C.-J. Huang et al. Characterization of voltage-gated sodium channel blockers by electrical stimulation and fluorescence detection of membrane potential, 24 Nature Biotech. 439-46 (2006), both of which are incorporated by reference in their entirety. The instrument comprises a microtiter plate handler, an optical system for exciting the coumarin dye while simultaneously recording the coumarin and oxonol emissions, a waveform generator, a current- or voltage-controlled amplifier, and parallel electrode pairs that are inserted into assay plate wells. […]
5 mM DiSBAC6(3), a voltage sensitive oxonol acceptor (CAS number 169211-44-3; 5-[3-(1,3-dihexylhexahydro-4,6-dioxo-2-thioxo-5-pyrimidinyl)-2-propen-1-ylidene]-1,3-dihexyldihydro-2-thioxo-4,6(1H,5H)-pyrimidinedione), in dry DMSO. The preparation of DiSBAC6(3) is analogous to that of DiSBAC4(3) as described in Voltage Sensing by Fluorescence Resonance Energy Transfer in Single Cells, Gonzalez, J. E. and Tsien, R. Y. (1995) Biophys. […]

The chains behind the UniProt entries cited, without tags or fusion partners. Residues count along the entry.
UniProt Q9Y5Y9, 126-1722 limits assumed: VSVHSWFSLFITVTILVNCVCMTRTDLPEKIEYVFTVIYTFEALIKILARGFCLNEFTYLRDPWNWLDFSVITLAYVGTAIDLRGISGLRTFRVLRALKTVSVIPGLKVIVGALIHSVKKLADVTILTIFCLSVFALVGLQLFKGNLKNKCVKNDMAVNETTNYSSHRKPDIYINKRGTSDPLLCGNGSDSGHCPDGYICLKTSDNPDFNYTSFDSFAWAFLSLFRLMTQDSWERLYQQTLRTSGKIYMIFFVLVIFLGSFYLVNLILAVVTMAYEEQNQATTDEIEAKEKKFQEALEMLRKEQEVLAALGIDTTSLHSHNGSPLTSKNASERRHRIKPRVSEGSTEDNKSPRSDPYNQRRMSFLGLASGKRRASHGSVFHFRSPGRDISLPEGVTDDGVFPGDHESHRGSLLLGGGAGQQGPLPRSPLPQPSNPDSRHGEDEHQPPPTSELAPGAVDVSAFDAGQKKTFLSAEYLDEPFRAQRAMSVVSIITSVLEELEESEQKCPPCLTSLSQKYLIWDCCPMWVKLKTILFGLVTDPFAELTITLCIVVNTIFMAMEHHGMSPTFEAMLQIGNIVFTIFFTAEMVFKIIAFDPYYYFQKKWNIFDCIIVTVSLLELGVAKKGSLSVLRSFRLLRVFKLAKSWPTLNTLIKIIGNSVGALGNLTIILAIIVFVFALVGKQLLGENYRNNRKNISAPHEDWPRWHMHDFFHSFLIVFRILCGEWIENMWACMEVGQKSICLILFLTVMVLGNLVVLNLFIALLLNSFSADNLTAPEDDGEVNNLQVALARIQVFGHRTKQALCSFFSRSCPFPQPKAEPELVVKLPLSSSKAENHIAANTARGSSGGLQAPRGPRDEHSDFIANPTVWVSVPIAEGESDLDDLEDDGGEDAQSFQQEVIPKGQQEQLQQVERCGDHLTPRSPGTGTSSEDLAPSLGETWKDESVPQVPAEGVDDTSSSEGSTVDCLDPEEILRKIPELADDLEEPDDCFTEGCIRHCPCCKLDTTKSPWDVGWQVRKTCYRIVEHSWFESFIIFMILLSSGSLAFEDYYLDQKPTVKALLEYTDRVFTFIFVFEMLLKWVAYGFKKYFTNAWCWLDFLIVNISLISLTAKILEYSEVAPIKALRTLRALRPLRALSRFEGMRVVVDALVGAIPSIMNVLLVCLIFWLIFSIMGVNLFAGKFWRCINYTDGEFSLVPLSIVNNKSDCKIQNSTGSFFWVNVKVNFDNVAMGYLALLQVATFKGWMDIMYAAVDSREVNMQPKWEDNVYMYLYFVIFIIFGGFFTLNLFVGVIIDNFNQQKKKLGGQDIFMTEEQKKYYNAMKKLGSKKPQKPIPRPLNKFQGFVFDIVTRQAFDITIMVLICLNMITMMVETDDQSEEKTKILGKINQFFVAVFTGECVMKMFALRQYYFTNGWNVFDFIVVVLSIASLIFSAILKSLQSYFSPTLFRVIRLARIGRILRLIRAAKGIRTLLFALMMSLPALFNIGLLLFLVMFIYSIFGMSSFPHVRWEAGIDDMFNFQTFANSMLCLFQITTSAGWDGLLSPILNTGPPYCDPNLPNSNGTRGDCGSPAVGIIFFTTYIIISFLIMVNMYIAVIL

CCOC(=O)c1cn(-c2cc3ccccc3nc2N2CCC(F)(F)CC2)c(C)c(OC)c1=O [Compound 251, ethyl 5-methoxy-[2-[4,4-difluoro-1-piperidyl]-3-quinolyl]-6-methyl-4-oxo-1H-pyridine-3-carboxylate]
IC50: < 500 nM
